Measurements: ChEMBL document CHEMBL3611981, “Discovery of potent nitrotriazole-based antitrypanosomal agents: In vitro and in vivo evaluation” (Bioorg Med Chem, 2015)

By UniProt entry, the sequences of proteins in these tests, tags left out.
UniProt P33261, whole entry: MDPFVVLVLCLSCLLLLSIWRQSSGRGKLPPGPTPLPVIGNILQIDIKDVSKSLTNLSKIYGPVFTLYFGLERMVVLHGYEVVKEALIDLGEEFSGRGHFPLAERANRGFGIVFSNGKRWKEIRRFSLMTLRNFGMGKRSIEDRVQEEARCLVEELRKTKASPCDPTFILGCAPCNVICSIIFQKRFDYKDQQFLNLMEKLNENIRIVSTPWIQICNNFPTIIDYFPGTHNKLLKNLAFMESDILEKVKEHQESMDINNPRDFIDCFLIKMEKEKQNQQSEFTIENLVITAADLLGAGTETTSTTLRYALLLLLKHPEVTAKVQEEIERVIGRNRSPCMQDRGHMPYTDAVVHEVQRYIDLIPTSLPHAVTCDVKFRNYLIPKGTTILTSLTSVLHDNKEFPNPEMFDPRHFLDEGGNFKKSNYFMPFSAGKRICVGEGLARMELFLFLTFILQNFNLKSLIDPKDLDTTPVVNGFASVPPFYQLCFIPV
UniProt P10635, whole entry: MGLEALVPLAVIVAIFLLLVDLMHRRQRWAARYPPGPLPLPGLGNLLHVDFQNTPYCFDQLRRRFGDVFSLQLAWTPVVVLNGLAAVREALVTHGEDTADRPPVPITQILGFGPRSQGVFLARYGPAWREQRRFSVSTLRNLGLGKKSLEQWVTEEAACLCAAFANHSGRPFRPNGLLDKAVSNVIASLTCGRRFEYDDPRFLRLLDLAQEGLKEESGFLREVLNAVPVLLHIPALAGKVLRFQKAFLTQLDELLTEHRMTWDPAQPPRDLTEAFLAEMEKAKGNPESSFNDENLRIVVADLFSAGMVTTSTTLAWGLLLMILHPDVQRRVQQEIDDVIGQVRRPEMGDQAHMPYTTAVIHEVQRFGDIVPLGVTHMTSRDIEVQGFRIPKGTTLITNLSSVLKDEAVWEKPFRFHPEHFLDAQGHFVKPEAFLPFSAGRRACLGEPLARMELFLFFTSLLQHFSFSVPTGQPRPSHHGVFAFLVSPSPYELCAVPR
UniProt P11712, whole entry: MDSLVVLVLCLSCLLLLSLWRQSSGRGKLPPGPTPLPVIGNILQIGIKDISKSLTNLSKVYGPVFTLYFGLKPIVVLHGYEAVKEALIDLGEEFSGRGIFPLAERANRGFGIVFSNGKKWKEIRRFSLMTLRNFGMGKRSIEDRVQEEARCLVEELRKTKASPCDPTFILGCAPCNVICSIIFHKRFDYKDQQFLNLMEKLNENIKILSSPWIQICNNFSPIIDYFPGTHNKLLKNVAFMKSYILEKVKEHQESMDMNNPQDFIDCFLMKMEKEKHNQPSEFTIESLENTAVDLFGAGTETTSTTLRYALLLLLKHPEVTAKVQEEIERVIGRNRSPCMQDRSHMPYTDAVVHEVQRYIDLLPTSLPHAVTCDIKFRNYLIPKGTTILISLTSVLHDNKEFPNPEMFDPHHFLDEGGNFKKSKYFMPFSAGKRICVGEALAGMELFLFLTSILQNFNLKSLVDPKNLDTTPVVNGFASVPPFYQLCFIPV
UniProt P08684, whole entry: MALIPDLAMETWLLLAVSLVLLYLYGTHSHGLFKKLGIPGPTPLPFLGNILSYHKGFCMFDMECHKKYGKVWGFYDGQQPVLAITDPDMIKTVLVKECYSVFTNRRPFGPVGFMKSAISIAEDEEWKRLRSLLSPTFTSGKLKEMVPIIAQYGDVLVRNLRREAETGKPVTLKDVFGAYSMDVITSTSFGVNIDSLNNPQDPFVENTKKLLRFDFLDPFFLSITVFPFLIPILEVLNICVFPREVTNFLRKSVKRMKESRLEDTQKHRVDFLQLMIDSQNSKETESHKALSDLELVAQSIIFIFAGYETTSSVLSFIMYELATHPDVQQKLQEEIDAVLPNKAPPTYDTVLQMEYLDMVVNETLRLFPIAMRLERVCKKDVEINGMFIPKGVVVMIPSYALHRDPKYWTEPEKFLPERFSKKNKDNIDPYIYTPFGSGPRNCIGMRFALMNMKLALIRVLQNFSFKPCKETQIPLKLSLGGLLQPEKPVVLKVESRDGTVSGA

Key:
Cytochrome P450 2B6 = target: T1, Cytochrome P450 2B6 (Homo sapiens, UniProt P20813); test: Inhibition of CYP2B6 (unknown origin)
T1 sequence (P20813 whole entry): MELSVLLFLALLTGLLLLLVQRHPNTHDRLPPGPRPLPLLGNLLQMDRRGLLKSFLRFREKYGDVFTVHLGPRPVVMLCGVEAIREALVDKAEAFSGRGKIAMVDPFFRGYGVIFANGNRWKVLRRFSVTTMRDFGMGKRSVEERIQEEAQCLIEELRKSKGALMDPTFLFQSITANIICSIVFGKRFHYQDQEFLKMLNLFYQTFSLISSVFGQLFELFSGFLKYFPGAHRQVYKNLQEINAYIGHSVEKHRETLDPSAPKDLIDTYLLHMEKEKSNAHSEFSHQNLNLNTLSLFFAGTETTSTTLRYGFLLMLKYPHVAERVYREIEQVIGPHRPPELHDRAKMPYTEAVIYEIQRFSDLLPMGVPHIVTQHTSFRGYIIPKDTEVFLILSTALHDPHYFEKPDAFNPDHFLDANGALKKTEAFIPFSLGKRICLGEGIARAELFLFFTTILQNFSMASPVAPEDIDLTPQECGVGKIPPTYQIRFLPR

Cytochrome P450 2C19 = Cytochrome P450 2C19 (Homo sapiens, UniProt P33261); test: Inhibition of CYP2C19 (unknown origin)
Cytochrome P450 2D6 = Cytochrome P450 2D6 (Homo sapiens, UniProt P10635); test: Inhibition of CYP2D6 (unknown origin)
Cytochrome P450 2C9 = Cytochrome P450 2C9 (Homo sapiens, UniProt P11712); test: Inhibition of CYP2C9 (unknown origin)
Cytochrome P450 3A4 = Cytochrome P450 3A4 (Homo sapiens, UniProt P08684); test: Inhibition of CYP3A4 (unknown origin)

Measured: IC50

O=C(Cn1cnc([N+](=O)[O-])n1)Nc1cccc(-c2ccccc2)c1
> 20 µM: all assays above
